Measured values as given in PMC4780735.
Results are given in words; binding and its absence hold for the method and conditions named. For part of these data: In cells and extracts the contact can be indirect. For part of these data: Tags and fused reporters may be left off the sequences shown.

Key:
[1] = target: T1, CpxA sensory kinase tagged with mYFP (E. coli), P0AE82; assay: FRET or BRET; homo-FRET between the mYFP tags, read as fluorescence anisotropy of live E. coli cells immobilised on a coverslip in a flow chamber; motility buffer pH 7 without EDTA, 22-23 °C; CuSO4 added (0.5-100 μM for BaeS, 10 μM for BaeS^H4/A and the other kinases, 30 μM for mYFP^D); details: remark: other sources report otherwise
T1 chain: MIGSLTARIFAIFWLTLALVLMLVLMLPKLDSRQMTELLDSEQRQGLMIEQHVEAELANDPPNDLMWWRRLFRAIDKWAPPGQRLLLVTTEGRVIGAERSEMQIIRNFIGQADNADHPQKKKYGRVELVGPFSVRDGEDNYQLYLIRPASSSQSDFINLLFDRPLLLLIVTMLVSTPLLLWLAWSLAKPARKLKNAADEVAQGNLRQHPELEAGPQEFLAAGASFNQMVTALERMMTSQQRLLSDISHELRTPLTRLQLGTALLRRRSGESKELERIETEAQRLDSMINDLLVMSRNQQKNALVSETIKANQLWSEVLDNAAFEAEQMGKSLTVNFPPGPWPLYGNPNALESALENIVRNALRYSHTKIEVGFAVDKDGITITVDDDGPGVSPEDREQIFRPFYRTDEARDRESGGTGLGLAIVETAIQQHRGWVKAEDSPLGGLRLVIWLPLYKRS

[2] = target: T2, EnvZ sensory kinase tagged with mYFP (E. coli), P0AEJ4; assay: as above; details: remark: other sources report otherwise
T2 chain: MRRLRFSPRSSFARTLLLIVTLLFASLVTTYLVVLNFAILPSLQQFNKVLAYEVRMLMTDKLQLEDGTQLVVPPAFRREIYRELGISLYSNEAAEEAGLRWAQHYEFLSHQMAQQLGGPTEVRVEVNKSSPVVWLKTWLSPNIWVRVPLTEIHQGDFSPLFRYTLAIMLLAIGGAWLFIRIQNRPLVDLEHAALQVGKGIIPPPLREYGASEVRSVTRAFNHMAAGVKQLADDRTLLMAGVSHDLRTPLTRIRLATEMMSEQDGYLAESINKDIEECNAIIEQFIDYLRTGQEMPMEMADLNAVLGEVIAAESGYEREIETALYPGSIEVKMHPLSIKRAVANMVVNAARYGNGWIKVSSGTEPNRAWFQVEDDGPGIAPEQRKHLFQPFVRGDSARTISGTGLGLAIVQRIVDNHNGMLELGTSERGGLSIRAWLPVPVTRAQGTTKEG

[3] = target: BaeS periplasmic domain (BaeS^P) (E. coli) (UniProt P30847); assay: SEC; analytical gel filtration of purified BaeS^P (S4A Fig); Superdex 75, 20 mM HEPES, 0.3 M NaCl, 5% glycerol, pH 7 in the purification; both purified

B1: CpxA sensory kinase tagged with mYFP, P0AE82 1-457 (receptor)
chain: MIGSLTARIFAIFWLTLALVLMLVLMLPKLDSRQMTELLDSEQRQGLMIEQHVEAELANDPPNDLMWWRRLFRAIDKWAPPGQRLLLVTTEGRVIGAERSEMQIIRNFIGQADNADHPQKKKYGRVELVGPFSVRDGEDNYQLYLIRPASSSQSDFINLLFDRPLLLLIVTMLVSTPLLLWLAWSLAKPARKLKNAADEVAQGNLRQHPELEAGPQEFLAAGASFNQMVTALERMMTSQQRLLSDISHELRTPLTRLQLGTALLRRRSGESKELERIETEAQRLDSMINDLLVMSRNQQKNALVSETIKANQLWSEVLDNAAFEAEQMGKSLTVNFPPGPWPLYGNPNALESALENIVRNALRYSHTKIEVGFAVDKDGITITVDDDGPGVSPEDREQIFRPFYRTDEARDRESGGTGLGLAIVETAIQQHRGWVKAEDSPLGGLRLVIWLPLYKRS
[1]
  binding: no binding (tested: 10 μM CuSO4)

B2: EnvZ sensory kinase tagged with mYFP, P0AEJ4 1-450 (receptor)
chain: MRRLRFSPRSSFARTLLLIVTLLFASLVTTYLVVLNFAILPSLQQFNKVLAYEVRMLMTDKLQLEDGTQLVVPPAFRREIYRELGISLYSNEAAEEAGLRWAQHYEFLSHQMAQQLGGPTEVRVEVNKSSPVVWLKTWLSPNIWVRVPLTEIHQGDFSPLFRYTLAIMLLAIGGAWLFIRIQNRPLVDLEHAALQVGKGIIPPPLREYGASEVRSVTRAFNHMAAGVKQLADDRTLLMAGVSHDLRTPLTRIRLATEMMSEQDGYLAESINKDIEECNAIIEQFIDYLRTGQEMPMEMADLNAVLGEVIAAESGYEREIETALYPGSIEVKMHPLSIKRAVANMVVNAARYGNGWIKVSSGTEPNRAWFQVEDDGPGIAPEQRKHLFQPFVRGDSARTISGTGLGLAIVQRIVDNHNGMLELGTSERGGLSIRAWLPVPVTRAQGTTKEG
[2]
  binding: no binding (tested: 10 μM CuSO4)

B3: BaeS periplasmic domain (BaeS^P) (domain or fragment, UniProt P30847 38-168)
chain: GFIDYIKHGNEQRLQLLSDALGEQYAQHGNWRFLRNNDRFVFQILRSFEHDNSEDKPGPGMPPHGWRTQFWVVDQNNKVLVGPRAPIPPDGTRRPILVNGAEVGAVIASPVERLTRNTDINFDKQQRQTSW
[3]
  binding: no binding
